# Measured values published in PubChem BioAssay AID1347131 (National Center for Advancing Translational Sciences (NCATS), 2019).
# The campaign covered roughly 410,000 compounds. About 2,000 (0.49%) were called active. These results got no clear call from the source, so the numbers are uncertain. Calls follow the shape of the full dose curve; tested in HEK293 reporter line. Some results for these compounds are left out of this collection, so the calls shown say nothing about other tests.
# Test: qHTS Assay for Foot and Mouth Disease Virus Antivirals: Primary Screen against the MLPCN compound library; also: nearly all actives have a fitted effect of over 55% in size
# Conditions: FMDV antiviral cell-based qHTS
# Potency is read from the fitted curve at half-maximal effect.
row,SMILES,Potency
1,C=CCN1CCN(CCOC(=O)C(O)(c2ccccc2)c2ccccc2)CC1,inconclusive: 5.01 µM
